Data: PMC5730568
The exact form of at least one protein or probe is not confirmed. A weaker result is weaker than the reference pair of the same experiment.

Chains of the proteins cited; added tags and fusions are not shown. Residues count along the entry.
UniProt Q07955, 1-186: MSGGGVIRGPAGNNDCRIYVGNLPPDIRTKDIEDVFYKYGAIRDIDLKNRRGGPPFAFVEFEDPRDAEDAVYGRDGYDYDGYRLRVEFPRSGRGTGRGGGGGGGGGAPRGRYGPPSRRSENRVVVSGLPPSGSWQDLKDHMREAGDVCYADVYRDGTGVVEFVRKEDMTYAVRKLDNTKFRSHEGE

Biological target: SRSF1-His6 (23 kDa) (UniProt Q07955)
Test: EMSA
Details: 0.5 uM 2'OMe-PS-Mbnl1 (S10); recombinant protein; residues 1-186; protein details: His6 (C-term as stated); label: 5'-32P; probe letters rebuilt from the primers and the genome

Does “GGGUUGGUACUAAGAAGUGCCUUUCCUGACGUCUCUGCUGCUUGGAACCGCUUCUAGAGCAGCCUCUGCUUUUGCCUUGCUUGCUGCCAGCUAGACUGACGACAGCACAUCCGCCCUCCACCUCUAGCCCAGACACCCCAUUUCUACUUCUAAUCAGGAGAAAAGCUCUGAGUAUCUGCCAUUGCCCUAGG [Mbnl1-RNA]” bind?
Result: binds more weakly
